Results are given in words; binding and its absence hold for the method and conditions named. Some results given as binding are weak or reduced against the parent protein; the word gives no strength. For part of these data: Sequences can lack the tags named with a protein.
B1: Sla2ccRTH (Sla2 residues 351-968) (domain or fragment, Saccharomyces cerevisiae, UniProt P33338 351-968, looked up)
chain: ATAQMQPDFWANQQAQFANEQNRLEQERVQQLQQQQAQQELFQQQLQKAQQDMMNMQLQQQNQHQNDLIALTNQYEKDQALLQQYDQRVQQLESEITTMDSTASKQLANKDEQLTALQDQLDVWERKYESLAKLYSQLRQEHLNLLPRFKKLQLKVNSAQESIQKKEQLEHKLKQKDLQMAELVKDRDRARLELERSINNAEADSAAATAAAETMTQDKMNPILDAILESGINTIQESVYNLDSPLSWSGPLTPPTFLLSLLESTSENATEFATSFNNLIVDGLAHGDQTEVIHCVSDFSTSMATLVTNSKAYAVTTLPQEQSDQILTLVKRCAREAQYFFEDLMSENLNQVGDEEKTDIVINANVDMQEKLQELSLAIEPLLNIQSVKSNKETNPHSELVATADKIVKSSEHLRVDVPKPLLSLALMIIDAVVALVKAAIQCQNEIATTTSIPLNQFYLKNSRWTEGLISAAKAVAGATNVLITTASKLITSEDNENTSPEQFIVASKEVAASTIQLVAASRVKTSIHSKAQDKLEHCSKDVTDACRSLGNHVMGMIEDDHSTSQQQQPLDFTSEHTLKTAEMEQQVEILKLEQSLSNARKRLGEIRRHAYYNQDDD

Legend:
[1] = biological target: B1; experiment: mass photometry
[2] = biological target: B1; experiment: cryo-EM structure
[3] = biological target: NusA conjugated to CLC (NusA-CLC) (Saccharomyces cerevisiae) (UniProt P17891); experiment: mass photometry

NusA (from UniProt P0AFF6 1-495)
binding [1]: no binding (tested: 50 nM)

B1
binding [2]: binds

B2: NusA conjugated to CLC (NusA-CLC) (natural protein, Saccharomyces cerevisiae, UniProt P17891 1-233, looked up)
chain: MSEKFPPLEDQNIDFTPNDKKDDDTDFLKREAEILGDEFKTEQDDILETEASPAKDDDEIRDFEEQFPDINSANGAVSSDQNGSATVSSGNDNGEADDDFSTFEGANQSTESVKEDRSEVVDQWKQRRAVEIHEKDLKDEELKKELQDEAIKHIDDFYDSYNKKKEQQLEDAAKEAEAFLKKRDEFFGQDNTTWDRALQLINQDDADIIGGRDRSKLKEILLRLKGNAKAPGA
binding [3]: no binding (tested: 50 nM)
